Laboratory results: paper PMC4010427, “Structural and Functional Similarity of Amphibian Constitutive Androstane Receptor with Mammalian Pregnane X Receptor” (PLoS ONE, 2014)
These are yes or no findings as the source states them, for the method shown. Binding seen in cells or lysates may run through a third protein.

Target: GST protein only
Assay: pull-down; CARLA control experiments set up with GST protein only instead of GST/SRC-1 fusion protein; only the target purified

B1: full-length human CAR1 protein, 35S-labelled (protein, UniProt Q14994-2 1-348)
chain: MASREDELRNCVVCGDQATGYHFNALTCEGCKGFFRRTVSKSIGPTCPFAGSCEVSKTQRRHCPACRLQKCLDAGMRKDMILSAEALALRRAKQAQRRAQQTPVQLSKEQEELIRTLLGAHTRHMGTMFEQFVQFRPPAHLFIHHQPLPTLAPVLPLVTHFADINTFMVLQVIKFTKDLPVFRSLPIEDQISLLKGAAVEICHIVLNTTFCLQTQNFLCGPLRYTIEDGARVGFQVEFLELLFHFHGTLRKLQLQEPEYVLLAAMALFSPDRPGVTQRDEIDQLQEEMALTLQSYIKGQQRRPRDRFLYAKLLGLLAELRSINEAYGYQIQHIQGLSAMMPLLQEICS
modifications: 35S-methionine labelled
binding: no binding
